We go through 15 compounds from PubChem BioAssay AID2685 (National Center for Advancing Translational Sciences (NCATS), 2010).

The experiment is described as follows: qHTS Assay for Lipid Storage Modulators in Drosophila S3 Cells.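 As to cell number change: cells counted by Cell Tracker Red CMTPX staining in the red channel.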 As to conditions: BODIPY lipid droplet fluorescence, 18-24 h; for cell number change: measured here: cell count max response, cells fed with added oleic acid. The method, boiled down: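 Laser-scanning cytometry quantifies lipid droplet accumulation (500–530 nm total intensity; droplet/cell object ratio) in oleic acid-fed (400 uM added) Drosophila S3 cells treated with a concentration series. 20 uM Triacsin C defined 100% inhibition.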

Where [1] appears, read: measured here: lipid fluorescence (Fed channel) AC50, cells fed with added oleic acid.
[2] abbreviates: measured here: cell number channel AC50, cells fed with added oleic acid.

A word on the AC50: it is the concentration giving half of the maximal activity seen. Low values mean greater potency, high ones weaker potency.

The list shows a part of the results. These are further read-outs of the screen, such as a control signal, another cell line or another target. No call is given for them. The list favours compounds with an active or inconclusive main result. Words in brackets tell the shape of the fitted curve; partial curves, single points and poor fits give uncertain potencies.

As for `Cc1nc(SC(C)C)[nH]c(=O)c1Cc1ccccc1`, the cell number change was -9.57%. Moreover, under setting [1], the AC50 was 0.103 µM [falling, full curve, poor fit].

`Cc1cc(C)n(C(=O)c2ccc(C)c(S(=O)(=O)N3CCCCC3)c2)n1`: the cell number change was -0.799%. Moreover, the AC50 under setting [1] was 6.51 µM [rising, single point].

Turning to `CCOc1ccc(NC(=O)CN(c2ccc(OC)c(OC)c2)S(=O)(=O)c2ccc(C)cc2)cc1`, the cell number change was -33%. Besides, the AC50 under setting [2] is 13 µM [falling, single point]. For the same compound, the AC50 under setting [1] is 6.51 µM [rising, partial curve].

Regarding `COc1ccc(-c2nc(CC(=O)O)cs2)cc1OC`, the cell number change was determined as 41.6%. For the same compound, the half-maximal activity concentration (AC50) under setting [2] is 14.6 µM [rising, single point].

Consider `CN(C)c1nc(N)c([N+](=O)[O-])c(NCc2ccccc2)n1`, for which the cell number change was 43.3%. For the same compound, the AC50 under setting [2] is 8.2 µM [rising, partial curve]. In addition, the AC50 under setting [1] was 8.2 µM [rising, partial curve].

For the compound `COc1ccc(-c2cc3nc(C4CCN(C(=O)OC(C)(C)C)CC4)c(C(=O)O)cn3n2)cc1`, the cell number change is -20.3%. Also, the concentration at half-maximal activity (AC50) under setting [1] is 20.6 µM [falling, single point].

For the compound `COc1ccc(Cn2c(=O)[nH]c3cc(C(=O)N4CCN(c5ccccc5OC)CC4)ccc3c2=O)cc1`, the cell number change was -5.13%.

Regarding `Cc1cc2c(NCCc3ccccc3)ncnc2s1`, the cell number change is -61.9%. The AC50 under setting [2] is 5.8 µM [falling, full curve, poor fit].

As for `O=C(Nc1ccc(S(=O)(=O)N2CCCc3ccccc32)cc1)C1CCCO1` (stereo unspecified), the half-maximal activity concentration (AC50) under setting [2] was 3.66 µM [rising, single point] and the AC50 under setting [1] is 6.51 µM [rising, partial curve, poor fit].

With `CCOC(=O)c1c(NC2OC(=O)c3c2ccc(OC)c3OC)sc(C(=O)OC(C)(C)C)c1C` (stereo unspecified), the cell number change is -18.1%. Under setting [1], the AC50 was 2.31 µM [rising, single point].

For `COc1ccc(C(O)(C(C)C)C(CN2CCOCC2)c2ccc(Cl)cc2)cc1` (stereo unspecified), the cell number change is 6.38%. The AC50 under setting [1] was 32.6 µM [rising, single point].

Regarding `Cc1[nH]c2ccccc2c1C(=O)C(=O)NCc1ccco1`, the AC50 reads like this: under setting [2], 6.51 µM [falling, single point]; under setting [1], 6.51 µM [falling, single point].

Turning to `CCCCNC(=O)N(O)C1N(/N=C/c2cccnc2)C(=S)SC1(C)C` (stereo unspecified), the cell number change was 9.54%. The AC50 under setting [1] is 0.651 µM [rising, partial curve, poor fit].

In the case of `COC(=O)C1=C(C(=O)OC)[C@@H]2N(Cc3ccccc3)c3ccccc3[C@@]23C[C@@H](CO)N(C(=O)NC2CCCC2)C3=N1`, the cell number change was -1.47%. The AC50 under setting [2] was 0.13 µM [falling, full curve, poor fit].

With `Cc1cc(Br)ccc1NC(=O)CN(C)C(=O)CCSc1ccc(F)cc1`, the cell number change turned out to be 8.57%. Also, the AC50 under setting [1] was 29.1 µM [falling, single point].
